Source: US10857167B2, “Use of oligosaccharide compositions to enhance weight gain” (Children's Hospital Medical Center, priority 2015, dated 2020)
Further values from the same series stand in other lists.

Tested on: distal small bowel gene expression
Assay: RNA sequencing / transcriptional analysis of small bowel 56 days after ICR (2′-FL signature response)
Type: in vivo, mouse
Description: Luminal small bowel contents were expressed into AllProtect Tissue Reagent (Qiagen Inc, CA). Bacterial DNA was extracted using the AllPrep DNA/RNA Mini Kit (Qiagen Inc, CA), according to kit instructions and prior to sequencing (described below). Small bowel tissue samples for RNA were placed into RNA Later (Life Technologies, NY). RNA extraction was accomplished following Qiagen RNeasy Plus Kit instruction (Qiagen Inc, CA). All nucleic acid samples were then stored at -80 Celsius until sequenced (described below). Transcriptional analysis was carried out on resected and harvested small bowel samples obtained from operated mice taken to 8 weeks. Murine RNA sequencing libraries were prepared from approximately 1.5 μg RNA using the TruSeq RNA Sample Preparation Kit (Illumina, Calif.) and sequenced using the HiSeq 2000 Sequencing System (Illumina, Calif.) with single-end 50 bp reads. Following removal of primers and barcodes, sequences were aligned to the mm10 genome using reference annotations from UCSC (Rosenbloom et al. (2015) Nucleic acids research 43: […]-681) (n=36,186 entities). Aligned reads were quantified and used to compute reads per kilobase per million mapped reads (RPKM); raw counts were then normalized using the DESeq algorithm and each harvested sample was baselined to its own resected sample. A filter was applied to the data, requiring at least three reads in all samples of at least one of the four experimental conditions (n=14,489 entities). The data discussed in this publication have been deposited in NCBI's Gene Expression Omnibus and are accessible through NCBI Gene Expression Omnibus (GEO) Series accession number GSE72590. Edgar et al. (2002) Nucleic acids research 30: 207-210. In order to characterize the impact of 2'-FL supplementation while accounting for the effect of ileoecal resection, a t-test was applied between resected and harvested samples within control and experimental animals. Significance was set at a p-value of ≤0.05 and a fold change of 3, which generated 2,576 differentially regulated entities across two comparisons. Gene set unions and intersections of the control and experimental gene sets were identified through Venn diagrams. From the master list, the gene list specific to animals supplemented with 2'-FL were removed in order to identify genes differentially regulated only by ICR (n=546 entities); this gene set characterizes the adaptive response. Further, the 2'-FL response (n=2,030 entities) was identified by removing the adaptive response signature described above from the master list, leaving only genes regulated by 2'-FL supplementation after ICR which were not found in the non-supplemented adaptive response. Heatmaps were generated using hierarchical clustering with the Pearson's Centered distance metric and the average linkage rule; both entities and samples were clustered. All genomic analyses described above were performed in Strand NGS (Strand Life Sciences, CA). Gene list functional enrichment was initially discovered using ToppFun, a member of the ToppGene Suite. Chen et al. (2009) Nucleic acids research 37: […]-311. No statistical correction was selected. Gene lists were further analyzed using ClueGO, a plugin for Cytoscape designed to decipher functionally grouped gene ontology and pathway annotation networks. Bindea et al. (2009) Bioinformatics 25: 1091-1093. At the time of data analysis, the annotation files were updated from sources to Jan. 1, 2015. “GO Term Fusion” was enabled to manage ontologic term redundancy and network specificity was set to medium. Results were restricted to pathways with p≤0.05 using Benjamini-Hochberg correction and Kappa scoring was set to 0.4. Biocyc annotations were assigned a rectangle, gene ontology biologic processes were assigned an ellipse, and […] annotations were assigned a diamond shape. No meaning was assigned to size or color. […]

In the case of `C[C@@H]1O[C@@H](O[C@H]2[C@H](O[C@H]3[C@H](O)[C@@H](O)C(O)O[C@@H]3CO)O[C@H](CO)[C@H](O)[C@@H]2O)[C@@H](O)[C@H](O)[C@@H]1O` (stereo partly shown) [2′-FL, 2′-fucosyllactose], the “Fold Change (Pre- to Post-op)” value (BC147527) is reported as 4.67, the “Fold Change (Pre- to Post-op)” value (Bad) is reported as 3.481 and the “Fold Change (Pre- to Post-op)” value (Barx2) is reported as 3.852. The “Fold Change (Pre- to Post-op)” value (Bbip1) was 3.631, the “Fold Change (Pre- to Post-op)” value (Bet1) was 3.74 and the “Fold Change (Pre- to Post-op)” value (Bloc1s2) was 5.046. The “Fold Change (Pre- to Post-op)” value (Bola1) was 3.165, the “Fold Change (Pre- to Post-op)” value (Bola2) was 3.525 and the “Fold Change (Pre- to Post-op)” value (Bri3) was 3.393. For the same compound, the “Fold Change (Pre- to Post-op)” value (Bud31) was 3.553, the “Fold Change (Pre- to Post-op)” value (C1ql3) was 3.089 and the “Fold Change (Pre- to Post-op)” value (C1qtnf4) was 3.302. For the same compound, the “Fold Change (Pre- to Post-op)” value (C1d) was 5.373, the “Fold Change (Pre- to Post-op)” value (C87977) was 8.094 and the “Fold Change (Pre- to Post-op)” value (C330013E15Rik) was 3.026. For the same compound, the “Fold Change (Pre- to Post-op)” value (C330018D20Rik) was 4.28, the “Fold Change (Pre- to Post-op)” value (C330022C24Rik) was 3.284 and the “Fold Change (Pre- to Post-op)” value (Calml4) was 3.699. The “Fold Change (Pre- to Post-op)” value (Car4) was 3.573, the “Fold Change (Pre- to Post-op)” value (Casp4) was 3.176 and the “Fold Change (Pre- to Post-op)” value (Casp6) was 3.284. The “Fold Change (Pre- to Post-op)” value (Cbr1) was 3.381, the “Fold Change (Pre- to Post-op)” value (Cbr3) was 4.769 and the “Fold Change (Pre- to Post-op)” value (Ccdc28a) was 3.21. The “Fold Change (Pre- to Post-op)” value (Ccdc58) was 3.208, the “Fold Change (Pre- to Post-op)” value (Ccdc90b) was 5.022 and the “Fold Change (Pre- to Post-op)” value (Ccdc107) was 4.264. The “Fold Change (Pre- to Post-op)” value (Ccdc122) was 4.317, the “Fold Change (Pre- to Post-op)” value (Ccdc142) was 4.101 and the “Fold Change (Pre- to Post-op)” value (Cck) was 3.246. For the same compound, the “Fold Change (Pre- to Post-op)” value (Ccl7) was 5.1269, the “Fold Change (Pre- to Post-op)” value (Ccl8) was 6.2504 and the “Fold Change (Pre- to Post-op)” value (Ccl12) was 3.183. The “Fold Change (Pre- to Post-op)” value (Ccl20) was 9.28, the “Fold Change (Pre- to Post-op)” value (Ccng2) was 3.524 and the “Fold Change (Pre- to Post-op)” value (Cd302) was 3.702. For the same compound, the “Fold Change (Pre- to Post-op)” value (Cd3d) was 3.077, the “Fold Change (Pre- to Post-op)” value (Cdkn2b) was 3.539 and the “Fold Change (Pre- to Post-op)” value (Ceacam10) was 3.159. For the same compound, the “Fold Change (Pre- to Post-op)” value (Cela1) was 3.912, the “Fold Change (Pre- to Post-op)” value (Cenpa) was 3.183 and the “Fold Change (Pre- to Post-op)” value (Cenpw) was 3.139. For the same compound, the “Fold Change (Pre- to Post-op)” value (Cetn2) was 3.03, the “Fold Change (Pre- to Post-op)” value (Cetn3) was 3.532 and the “Fold Change (Pre- to Post-op)” value (Chac2) was 6.017. For the same compound, the “Fold Change (Pre- to Post-op)” value (Chchd1) was 4.681, the “Fold Change (Pre- to Post-op)” value (Chchd2) was 3.429 and the “Fold Change (Pre- to Post-op)” value (Chchd6) was 3.848. The “Fold Change (Pre- to Post-op)” value (Chpt1) was 3.408, the “Fold Change (Pre- to Post-op)” value (Chrna1) was 3.295 and the “Fold Change (Pre- to Post-op)” value (Churc1) was 3.8. For the same compound, the “Fold Change (Pre- to Post-op)” value (Cisd1) was 3.478, the “Fold Change (Pre- to Post-op)” value (Cklf) was 3.155 and the “Fold Change (Pre- to Post-op)” value (Clec4a4) was 4.113. For the same compound, the “Fold Change (Pre- to Post-op)” value (Clec11a) was 4.118, the “Fold Change (Pre- to Post-op)” value (Cmpk1) was 3.834 and the “Fold Change (Pre- to Post-op)” value (Cnih1) was 3.359. For the same compound, the “Fold Change (Pre- to Post-op)” value (Coa3) was 3.688, the “Fold Change (Pre- to Post-op)” value (Coa6) was 4.118 and the “Fold Change (Pre- to Post-op)” value (Commd1) was 3.397. The “Fold Change (Pre- to Post-op)” value (Commd2) was 4.543, the “Fold Change (Pre- to Post-op)” value (Commd6) was 4.745 and the “Fold Change (Pre- to Post-op)” value (Commd8) was 3.027. For the same compound, the “Fold Change (Pre- to Post-op)” value (Coprs) was 3.681, the “Fold Change (Pre- to Post-op)” value (Coq3) was 3.854 and the “Fold Change (Pre- to Post-op)” value (Cox4i1) was 3.946. The “Fold Change (Pre- to Post-op)” value (Cox6a1) was 3.276, the “Fold Change (Pre- to Post-op)” value (Cox6b1) was 3.574 and the “Fold Change (Pre- to Post-op)” value (Cox6c) was 3.634. For the same compound, the “Fold Change (Pre- to Post-op)” value (Cox7a2) was 4.02, the “Fold Change (Pre- to Post-op)” value (Cox7a2l) was 3.123 and the “Fold Change (Pre- to Post-op)” value (Cox7b) was 4.932. For the same compound, the “Fold Change (Pre- to Post-op)” value (Cox7c) was 3.557, the “Fold Change (Pre- to Post-op)” value (Cox14) was 4.539 and the “Fold Change (Pre- to Post-op)” value (Cox16) was 4.586. For the same compound, the “Fold Change (Pre- to Post-op)” value (Cox17) was 3.196, the “Fold Change (Pre- to Post-op)” value (Cox19) was 3.331 and the “Fold Change (Pre- to Post-op)” value (Crip1) was 3.737. For the same compound, the “Fold Change (Pre- to Post-op)” value (Cript) was 4.107, the “Fold Change (Pre- to Post-op)” value (Crot) was 3.168 and the “Fold Change (Pre- to Post-op)” value (Csf2) was 3.435. The “Fold Change (Pre- to Post-op)” value (Cst6) was 3.121, the “Fold Change (Pre- to Post-op)” value (Ctla2b) was 5.921 and the “Fold Change (Pre- to Post-op)” value (Ctxn3) was 5.82. For the same compound, the “Fold Change (Pre- to Post-op)” value (Cxcl16) was 3.216, the “Fold Change (Pre- to Post-op)” value (Cyb5) was 3.219 and the “Fold Change (Pre- to Post-op)” value (Cycs) was 3.837. For the same compound, the “Fold Change (Pre- to Post-op)” value (Cyp2r1) was 3.143, the “Fold Change (Pre- to Post-op)” value (Cyp51) was 4.805 and the “Fold Change (Pre- to Post-op)” value (Cystm1) was 3.195. For the same compound, the “Fold Change (Pre- to Post-op)” value (D130040H23Rik) was 6.992, the “Fold Change (Pre- to Post-op)” value (D330045A20Rik) was 6.802 and the “Fold Change (Pre- to Post-op)” value (Dbi) was 4.947. The “Fold Change (Pre- to Post-op)” value (Dbndd2) was 3.402, the “Fold Change (Pre- to Post-op)” value (Dctpp1) was 3.925 and the “Fold Change (Pre- to Post-op)” value (Dcun1d5) was 3.581. For the same compound, the “Fold Change (Pre- to Post-op)” value (Ddt) was 3.272, the “Fold Change (Pre- to Post-op)” value (Deb1) was 4.009 and the “Fold Change (Pre- to Post-op)” value (Dkk4) was 4.617. For the same compound, the “Fold Change (Pre- to Post-op)” value (Dnajc15) was 4.927, the “Fold Change (Pre- to Post-op)” value (Dnajc19) was 3.578 and the “Fold Change (Pre- to Post-op)” value (Dph3) was 3.817. The “Fold Change (Pre- to Post-op)” value (Dpm3) was 3.46, the “Fold Change (Pre- to Post-op)” value (Dpy30) was 3.022 and the “Fold Change (Pre- to Post-op)” value (Dtd2) was 3.143. The “Fold Change (Pre- to Post-op)” value (Dusp14) was 3.1, the “Fold Change (Pre- to Post-op)” value (Dusp19) was 3.608 and the “Fold Change (Pre- to Post-op)” value (Dynlt1a) was 4.579. For the same compound, the “Fold Change (Pre- to Post-op)” value (Dynlt1f) was 3.889, the “Fold Change (Pre- to Post-op)” value (E030024N20Rik) was 3.148 and the “Fold Change (Pre- to Post-op)” value (Ebpl) was 3.328. The “Fold Change (Pre- to Post-op)” value (Echs1) was 3.028, the “Fold Change (Pre- to Post-op)” value (Eef1b2) was 3.227 and the “Fold Change (Pre- to Post-op)” value (Eif4a2) was 3.69. The “Fold Change (Pre- to Post-op)” value (Eif3h) was 3.016, the “Fold Change (Pre- to Post-op)” value (Endog) was 3.078 and the “Fold Change (Pre- to Post-op)” value (Ereg) was 3.585. For the same compound, the “Fold Change (Pre- to Post-op)” value (Erh) was 3.201, the “Fold Change (Pre- to Post-op)” value (Erich2) was 5.146 and the “Fold Change (Pre- to Post-op)” value (Fabp2) was 8.144. The “Fold Change (Pre- to Post-op)” value (Fahd2a) was 3.735.
